According to patent publication US20240376517A1 (THE UNIVERSITY COURT OF THE UNIVERSITY OF EDINBURCH, priority 2021, published 2024):
Values joined by “and” are separate entries in the source; they are usually repeats but may differ in a detail not shown here. Equal values may be shown once. For some assays here: Part of at least one peptide drawing is inferred or uncertain, most often the ends. For some assays here: At least one read-out could not be matched to a standard name with certainty. For some assays here: At least one structure is not confirmed: it was looked up by name or label, or the drawing left a doubt. *1 amine or outer side, *2 acyl side, *3 side chain or, on linkers, in order; H or OH if unused. Where a SMILES comes first, the peptide text is derived from it. [ ]: non-standard residue; d: D form. The star is where a group is joined. ξ: configuration not given here. BODIPY(FL) = CC1=CC(C)=[N+]2C1=Cc1ccc(CCC(=O)*)n1[B-]2(F)F; X1 = CN(C)c1ccc(/N=N/c2ccc(C(=O)*)cc2)cc1; Ethylenediamine = C(CN[*:2])N[*:1]; Ile(3ξ) = CCC(C)[C@H](N)C(=O)O

Protein sequences, listed by entry. Tags and fused reporters are not part of them. Residues count along the entry.
UniProt P10144, 21-247: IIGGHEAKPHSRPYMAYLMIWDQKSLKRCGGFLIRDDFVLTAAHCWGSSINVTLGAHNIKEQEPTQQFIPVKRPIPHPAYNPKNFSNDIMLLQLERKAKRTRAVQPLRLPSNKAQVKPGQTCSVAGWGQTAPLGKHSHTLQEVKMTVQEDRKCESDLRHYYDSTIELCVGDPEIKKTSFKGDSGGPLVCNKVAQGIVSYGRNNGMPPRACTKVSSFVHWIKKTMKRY

Key:
[1] = test system: co-cultures of E0771 cells and IL-2-activated CD8+ T cells; assay: Drug screening, image-based phenotypic screen with H5; type: cell-based, mouse; conditions: drug at working concentration plus IL-2 100 U mL^−1, 3 h
Method: Drug screening. E0771 (750 cells/well) and freshly isolated murine CD8+ T cells (6,000 cells/well) were plated in 384-well plates as described above. […] H5 (20 μM) and Hoechst 33342 (1 μM) was added for 1 h at 37° C., washed with PBS and imaged under ImageXpress™ XLS (Molecular Devices) using KRB (10% FBS) buffer as media. Fluorescent images (4 sites/well) were acquired under a 40× objective using 405 nm (Hoechst) and 488 nm (H5) excitation wavelengths and data was analysed with MetaXpress software using the Custom Module Editor. Briefly, nuclei were used as seeds to create a pseudo-cell area and granzyme B positive puncta were detected using a top-hat filter (pixel size: 10, circle shape) followed by an average filter (3×3 pixel).

[2] = target: T1, human caspase-3 (Homo sapiens, UniProt P42574); assay: Fluorescence response to caspase-3; type: biochemical; conditions: H5 25 μM, 510 nm
T1 sequence (P42574 29-175 limits assumed): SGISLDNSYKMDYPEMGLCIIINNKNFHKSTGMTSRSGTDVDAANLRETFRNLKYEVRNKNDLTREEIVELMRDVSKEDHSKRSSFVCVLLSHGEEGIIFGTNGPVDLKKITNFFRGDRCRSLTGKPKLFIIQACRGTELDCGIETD
T1 sequence (P42574 176-277 limits assumed): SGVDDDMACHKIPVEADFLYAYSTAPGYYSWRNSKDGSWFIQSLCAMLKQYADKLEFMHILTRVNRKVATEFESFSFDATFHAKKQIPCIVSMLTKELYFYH

[3] = target: T2, hGzmB (Homo sapiens, UniProt P10144); assay: Optimisation of assay conditions (LoD of hGzmB); type: biochemical
[4] = test system: other enzymes (pro-hGzmB, granzyme A, neutrophil elastase, caspases); assay: Fluorescence response to other proteases (selectivity); type: biochemical, human; conditions: 25 μM probe, proteases 20 nM, 37° C., 60 min
[5] = target: T3, GzmB (Homo sapiens, UniProt P10144); assay: Antibody capture activity assay; type: biochemical; conditions: in serum
T3 construct: 100 ul active GzmB standards, diluted from 1 mg/ml stock

[6] = target: T2, hGzmB; assay: HPLC conversion/cleavage of probes by hGzmB; type: biochemical; conditions: 20 nM hGzmB
Excerpt: FIG. 5. HPLC traces of the probe H5 before and after reaction with hGzmB. HPLC chromatogram and mass spectrometry analysis of the probe H5 before and after reaction with increasing concentrations of hGzmB. Mcalc. (intact probe): 1246.6 [M+Na^+]; Mcalc. (cleaved probe): 747.2 [M+H^+].

[7] = test system: SCC cancer cells from tumors; assay: Flow cytometry of harvested SCC tumors stained with probe; type: cell-based, mouse
[8] = target: T4, recombinant mouse GzmB (Mus musculus, UniProt P04187); assay: Reactivity against recombinant mouse GzmB; type: biochemical; conditions: 25 μM, 90 min, 37° C., mouse pro-GzmB 100 nM pre-activated with cathepsin C
T4 sequence (P04187 21-247): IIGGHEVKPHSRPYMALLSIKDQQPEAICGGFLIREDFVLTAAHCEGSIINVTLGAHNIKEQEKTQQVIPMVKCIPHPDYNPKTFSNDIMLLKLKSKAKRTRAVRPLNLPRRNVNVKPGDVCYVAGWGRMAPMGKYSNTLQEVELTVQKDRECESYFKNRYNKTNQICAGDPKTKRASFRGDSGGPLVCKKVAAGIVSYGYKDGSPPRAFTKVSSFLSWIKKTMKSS

[9] = target: T5, granzyme B (Homo sapiens, UniProt P10144); assay: Fluorescence assays in stool samples (antibody capture); type: biochemical; design: assess the activity of granzyme B within each stool sample; from tissue; host or cells: clinical stool supernatants (high and low calprotectin); conditions: 18 h
[10] = test system: E0771 cells in co-culture with CD8+ T cells; assay: Flow cytometry of E0771 / CD8+ T cell co-cultures; type: cell-based, mouse
[11] = test system: EpCAM+ cells of lung biopsies; assay: Human lung cancer biopsies, flow cytometry with H5; type: cell-based; conditions: paired biopsies of lung cancer patients
[12] = target: T5, granzyme B; assay: Fluorescence assays in urine samples spiked with granzyme B; type: biochemical; design: of active recombinant granzyme B to the healthy urine samples
[13] = target: T2, hGzmB; assay: Fluorescence assays with recombinant hGzmB; type: biochemical
Method: Fluorescence assays with recombinant enzymes. Fluorescence-based assays with enzymes were performed in buffer-1 (50 mM Tris, 100 mM NaCl, pH 7.4) for GzmB, pro-GzmB, GzmA and HNE, or buffer-2 (25 mM HEPES, 0.1% CHAPS, 10 mM DTT, pH 7.5) for caspases and other enzymes. Probes (25 μM) were added to enzymes (20 nM or at the indicated concentrations) in 384-well plates and their fluorescence emission was recorded at 450 nm (for AMC) or 510 nm (for BODIPY) at 37° C. using a Synergy H1 Hybrid reader (BioTek). In experiments with Ac-IEPD-CHO (50 μM), the inhibitor was pre-incubated for 1 h with GzmB before addition of any probe.

SMILES: Cn1nnc2c(C(N)=O)ncn2c1=O [C20, Temozolomide]
- H5 fluorescence signal compared to IL-2 only controls [1]: Increased fluorescence signals

SMILES: CCC(C)[C@H](NC(=O)CCC1=[N+]2C(=Cc3c(C)cc(C)n3[B-]2(F)F)C=C1)C(=O)N[C@@H](CCC(=O)O)C(=O)N1CCC[C@H]1C(=O)N[C@@H](CC(=O)O)C(=O)N[C@@H](C)C(=O)N[C@@H](CC(C)C)C(=O)NCCNC(=O)c1ccc(/N=N/c2ccc(N(C)C)cc2)cc1 (some centres unmarked) [H5] ({BODIPY(FL)}-[Ile(3ξ)]EPDAL-{Ethylenediamine-X1})
- fluorescence response to caspase-3 [2]: minimal response
- LoD ([3]; probe 5 μM, Monochromator, 450-510 nm, gain 100, NaCl 100 mM, pH 7.4): 677.41 pM
- LoD ([3]; probe 5 μM, Monochromator, 470-510 nm, gain 60, NaCl 100 mM, pH 7.4): 547.45 pM
- LoD ([3]; probe 5 μM, Monochromator, 470-510 nm, gain 100, NaCl 100 mM, pH 7.4): 419.61 pM
- LoD ([3]; probe 25 μM, Filter, 485-530 nm, gain 25, NaCl 100 mM, pH 7.4): 32.61 pM
- LoD ([3]; probe 25 μM, Filter, 485-530 nm, gain 35, NaCl 1 mM, pH 7.4): 47.48 pM
- LoD ([3]; probe 25 μM, Filter, 485-530 nm, gain 35, NaCl 100 mM, pH 7): 7.49 pM
- LoD ([3]; probe 25 μM, Filter, 485-530 nm, gain 35, NaCl 100 mM, pH 7.4): 106.67 pM
- LoD ([3]; probe 25 μM, Filter, 485-530 nm, gain 35, NaCl 100 mM, pH 7.7): 48.05 pM
- LoD ([3]; probe 25 μM, Filter, 485-530 nm, gain 35, NaCl 100 mM, pH 8): 42.50 pM
- LoD ([3]; probe 25 μM, Filter, 485-530 nm, gain 35, NaCl 200 mM, pH 7.4): 72.55 pM
- LoD ([3]; probe 25 μM, Filter, 485-530 nm, gain 35, NaCl 400 mM, pH 7): 33.80 pM
- LoD ([3]; probe 25 μM, Filter, 485-530 nm, gain 35, NaCl 400 mM, pH 7.4): 43.99 pM
- LoD ([3]; probe 25 μM, Filter, 485-530 nm, gain 45, NaCl 1 mM, pH 7.4): 41.02 pM
- LoD ([3]; probe 25 μM, Filter, 485-530 nm, gain 45, NaCl 100 mM, pH 7): 6.32 pM
- LoD ([3]; probe 25 μM, Filter, 485-530 nm, gain 45, NaCl 100 mM, pH 7.4): 160.86 pM
- LoD ([3]; probe 25 μM, Filter, 485-530 nm, gain 45, NaCl 100 mM, pH 7.7): 37.69 pM
- LoD ([3]; probe 25 μM, Filter, 485-530 nm, gain 45, NaCl 100 mM, pH 8): 26.63 pM
- LoD ([3]; probe 25 μM, Filter, 485-530 nm, gain 45, NaCl 200 mM, pH 7.4): 70.06 pM
- LoD ([3]; probe 25 μM, Filter, 485-530 nm, gain 45, NaCl 400 mM, pH 7): 20.32 pM
- LoD ([3]; probe 25 μM, Filter, 485-530 nm, gain 45, NaCl 400 mM, pH 7.4): 25.91 pM
- LoD ([3]; probe 25 μM, Filter, 485-530 nm, gain 55, NaCl 100 mM, pH 7.4): 150.78 pM
- LoD ([3]; probe 50 μM, Filter, 485-530 nm, gain 25, NaCl 100 mM, pH 7.4): 57.18 pM
- LoD ([3]; probe 50 μM, Filter, 485-530 nm, gain 35, NaCl 100 mM, pH 7.4): 57.93 pM
- fluorescence response to other enzymes [4]: minimal response
- LoD [5]: 40.9 pg/mL
- time to complete cleavage [6]: less than 30 min
- cancer cells stained with probe H5 ([7]; SCC FAK (−/−) tumors, 30 min): over 40%
- staining with probe H5 ([7]; wild-type SCC tumors): almost not stained
- response to mouse GzmB [8]: good response
- average concentration of granzyme B ([9]; high calprotectin stool samples): 11636 pg/mL
- average concentration of granzyme B ([9]; low calprotectin stool samples): 4802 pg/mL
- cancer cells double-stained with H5 and Annexin V-AF647 ([10]; cultured with activated T cells): over 80%
- H5 fluorescence in control cultures ([10]; non-reinvigorated T cells or cancer cells treated with staurosporine): weak fluorescence
- percentages of EpCAM+H5+ cells, healthy vs cancerous tissue [11]: significant differences
- fluorescence increase in urine with spiked granzyme B ([12]; granzyme B 15 nM, H5 at 510 nm, R7 at 660 nm): 7 fold
- LoD ([12]; granzyme B spiked in healthy urine, probe 25 μM, 3 hours, 37 C): 6.18 pM and 198 pg/mL
- Vmax [13]: high μM min^−1 range
- improvement of kcat/KM over fluorescent tetrapeptides [13]: more than 1000 fold
- kcat/KM [13]: 1.2e+07 M⁻¹ s⁻¹
- t50 (time to reach 50-fold fluorescence increase) [13]: 7 min
- signal-to-background ratio (fluorescence increase) ([13]; in the presence of recombinant hGzmB): 153 fold
- LoD ([13]; limit of detection of hGzmB): 6 pM
